Results on two molecules are retold here after patent US20120121576A1.

Amino acid sequences for entries named in this document (tags omitted). A change or cut given only in a name is not applied to a line headed by its entry.
UniProt P27037: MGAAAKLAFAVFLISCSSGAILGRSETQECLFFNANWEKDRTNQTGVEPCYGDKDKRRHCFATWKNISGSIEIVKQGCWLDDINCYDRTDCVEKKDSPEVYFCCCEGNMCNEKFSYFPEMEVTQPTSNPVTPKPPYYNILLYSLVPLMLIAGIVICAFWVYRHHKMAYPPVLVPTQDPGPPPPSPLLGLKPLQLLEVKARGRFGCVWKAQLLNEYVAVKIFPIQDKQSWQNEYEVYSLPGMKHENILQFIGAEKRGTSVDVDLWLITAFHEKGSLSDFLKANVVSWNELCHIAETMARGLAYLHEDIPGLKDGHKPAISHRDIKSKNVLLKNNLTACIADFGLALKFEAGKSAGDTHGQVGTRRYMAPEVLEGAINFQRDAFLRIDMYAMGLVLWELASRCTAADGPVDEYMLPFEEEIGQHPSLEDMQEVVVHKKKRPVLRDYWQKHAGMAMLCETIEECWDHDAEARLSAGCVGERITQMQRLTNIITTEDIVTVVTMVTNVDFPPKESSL

These are yes or no findings as the source states them, for the method shown. Some binding calls cover weakened binding; strength is not graded here.

This assay has as its target ActRIIA-Fc (ActRIIA-mFc, dimeric protein) (human) (UniProt P27037). As to the kind of experiment: SPR (BIACORE) competition; captured Ab-14E1, 50 nM ActRIIA-Fc premixed with ligand up to 100 nM; competitor Ab-14E1. For orientation: In SPR one partner is held on a chip, and binding of the other changes the refractive index at the surface.

B1: activin B (ligand, UniProt P09529 293-407, looked up)
chain: GLECDGRTNLCCRQQFFIDFRLIGWNDWIIAPTGYYGNYCEGSCPAYLAGVPGSASSFHTAVVNQYRMRGLNPGTVNSCCIPTKLSTMSMLYFDDEYNIVKRDVPNMIVEECGCA
Regarding B1, the binding result was “binds”.

B2: GDF-11 (ligand, UniProt O95390 299-407, looked up)
chain: NLGLDCDEHSSESRCCRYPLTVDFEAFGWDWIIAPKRYKANYCSGQCEYMFMQKYPHTHLVQQANPRGSAGPCCTPTKMSPINMLYFNDKQQIIYGKIPGMVVDRCGCS
On to B2, for which the binding entry is on record as “binds”.
